{"source": "paper PMC9745799", "about": "“Polymyxin Stereochemistry and Its Role in Antibacterial Activity and Outer Membrane Disruption” (ACS Infectious Diseases, 2022)", "tested_on": "LPS from E. coli (O55:B5)", "test": "Isothermal titration calorimetry (ITC), LPS binding", "details": "one-site model, assuming 20 kDa molecular weight of LPS, 37 °C", "experimental": "Stock solutions of LPS (10 mg/mL, 0.5 mM) were prepared in 20 mM HEPES at pH 7 by suspension, sonication, and temperature cycling between 4 and 60 °C and stored overnight prior to use. LPS from E. coli (O55:B5) was used. Lipopeptide solutions (1 mM in 20 mM HEPES, pH 7) were titrated into a suspension of LPS (0.020 mM) in the same buffer. Control titrations included the titration of peptide into buffer and buffer into the LPS suspension to determine the corresponding heat of dilution. All binding experiments were performed using a MicroCal PEAQ-ITC Automated microcalorimeter (Malvern Panalytical Ltd., Malvern, UK). The samples were equilibrated to 37 °C prior to measurement. The titrations were conducted at 37 °C under constant stirring at 750 rpm. Each experiment consisted of an initial injection of 0.3 μL followed by 25 separate injections of 1.5 μL into the sample cell of 200 μL. The time between each injection was 180 s, and the measurements were performed with the reference power set at 5 μcal s^–1 and the feedback mode set at “low”. For all calculations performed, an estimated molecular weight of 20 kDa for LPS was applied. The calorimetric data thus obtained were analyzed using MicroCal PEAQ-ITC Analysis Software Version 1.20 (Malvern Panalytical Ltd., Malvern, UK), where the integrated heat signal is corrected for the heat of dilution of the titrant.", "note": "Positions of bridges follow the written chain, without caps; N, C: chain ends. Non-standard residues stand in square brackets, D forms with d. Residues, ends and D or L forms follow the SMILES beside them. dDab = NCC[C@@H](N)C(=O)O; Dab = NCC[C@H](N)C(=O)O", "data": [{"smiles": "CC(C)C[C@@H]1NC(=O)[C@@H](Cc2ccccc2)NC(=O)[C@H](CCN)NC(=O)[C@@H](NC(=O)[C@H](CCN)NC(=O)[C@@H](N)[C@@H](C)O)CCNC(=O)[C@H]([C@@H](C)O)NC(=O)[C@H](CCN)NC(=O)[C@H](CCN)NC1=O", "note": "[PMBN, polymyxin B nonapeptide, reference compound] (H-T[Dab][Dab][Dab][dF]L[Dab][Dab]T; lactam 3-C (inferred); N-terminus assumed)", "values": [{"measurement": "Peptide/LPS, molar ratio of peptide to LPS preparation", "value": 3.5}]}, {"smiles": "CC(C)C[C@H]1NC(=O)[C@H](Cc2ccccc2)NC(=O)[C@@H](CCN)NC(=O)[C@H](NC(=O)[C@@H](CCN)NC(=O)[C@H](N)[C@H](C)O)CCNC(=O)[C@@H]([C@H](C)O)NC(=O)[C@@H](CCN)NC(=O)[C@@H](CCN)NC1=O", "note": "[ent-PMBN] (H-[dT][dDab][dDab][dDab]F[dL][dDab][dDab][dT]; lactam 3-C)", "values": [{"measurement": "Peptide/LPS, molar ratio of peptide to LPS preparation", "value": 4.3}]}]}
